Experimental data reported in patent US20100040611A1 (Merck Sharp & Dohme, published 2010).
Results are given in words; binding and its absence hold for the method and conditions named. Some binding calls cover weakened binding; strength is not graded here.

By UniProt entry, the sequences of proteins in these tests, tags left out. Residues count along the entry.
UniProt Q8NBP7, residues 31-692: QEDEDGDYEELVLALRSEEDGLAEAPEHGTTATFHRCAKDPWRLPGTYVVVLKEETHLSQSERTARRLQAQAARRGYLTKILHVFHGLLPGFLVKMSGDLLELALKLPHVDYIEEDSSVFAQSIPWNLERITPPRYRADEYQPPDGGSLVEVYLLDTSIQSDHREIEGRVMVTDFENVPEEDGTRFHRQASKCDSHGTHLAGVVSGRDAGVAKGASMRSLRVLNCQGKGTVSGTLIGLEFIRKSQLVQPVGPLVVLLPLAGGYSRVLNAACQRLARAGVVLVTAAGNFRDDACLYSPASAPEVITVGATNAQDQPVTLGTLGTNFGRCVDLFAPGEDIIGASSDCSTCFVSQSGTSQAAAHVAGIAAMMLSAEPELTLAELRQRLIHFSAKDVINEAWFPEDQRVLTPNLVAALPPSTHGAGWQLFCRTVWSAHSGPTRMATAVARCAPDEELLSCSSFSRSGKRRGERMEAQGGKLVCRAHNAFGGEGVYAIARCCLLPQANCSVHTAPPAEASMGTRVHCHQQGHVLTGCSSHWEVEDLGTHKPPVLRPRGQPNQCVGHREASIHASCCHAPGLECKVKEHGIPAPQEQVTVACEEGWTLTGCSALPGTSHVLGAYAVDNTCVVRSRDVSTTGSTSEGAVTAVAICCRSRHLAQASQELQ

Molecular target: recombinant human PCSK9, V5-, His-tagged (human, UniProt Q8NBP7 31-692, limits assumed)
Experiment: ELISA on immobilised V5-, His-tagged PCSK9, HRP anti-Fab detection

Binder | binding
1CX1G08 (Fab, V domains shown) VH: QVQLVESGGGLVQPGGSLRLSCAASGFTFSDYWVSWVRQAPGKGLEWVSFISYDGSSTYYADSVKGRFTISRDNSKNTLYLQMNSLRAEDTAVYYCARTYFEGVDVWGQGTLVTVSS VL: DIELTQPPSVSVAPGQTARISCSGDNIGTYYVHWYQQKPGQAPVLVIYDDSNRPSGIPERFSGSNSGNTATLTISGTQAEDEADYYCGTWDNTSFNLVFGGGTKLTVLG | binds
3BX5C01 (Fab, V domains shown) VH: QVQLVQSGAEVKKPGESLKISCKGSGYSFTSYGISWVRQMPGKGLEWMGMIDPSDSFTTYSPSFQGQVTISADKSISTAYLQWSSLKASDTAMYYCARGYYFTYALQPMDHWGQGTLVTVSS VL: DIELTQPPSVSVAPGQTARISCSGDNLRDYIVHWYQQKPGQAPVLVIYDDSNRPSGIPERFSGSNSGNTATLTISGTQAEDEADYYCGFDNGGDIDVFGGGTKLTVLG | binds
3CX2A06 (Fab, V domains shown) VH: QVQLVQSGAEVKKPGESLKISCKGSGYSFSNFWIAWVRQMPGKGLEWMGIIDPSDSWTRYSPSFQGQVTISADKSISTAYLQWSSLKASDTAMYYCARGDGQDFDNWGQGTLVTVSS VL: DIQMTQSPSSLSASVGDRVTITCRASQNINSYLNWYQQKPGKAPKLLIYAASSLQSGVPSRFSGSGSGTDFTLTISSLQPEDFAVYYCLQNYDLPNTFGQGTKVEIKR | binds
3CX3D02 (Fab, V domains shown) VH: QVQLVQSGAEVKKPGESLKISCKGSGYSFTNSWIGWVRQMPGKGLEWMGIIYPSDSYTIYSPSFQGQVTISADKSISTAYLQWSSLKASDTAMYYCARGGGYYYALMDVWAQGTLVTVSS VL: DIQMTQSPSSLSASVGDRVTITCRASQTISTWLNWYQQKPGKAPKLLIYAASSLQSGVPSRFSGSGSGTDFTLTISSLQPEDFATYYCLQDSSLPLTFGQGTKVEIKR | binds
3CX4B08 (Fab, V domains shown) VH: QVQLVESGGGLVQPGGSLRLSCAASGFTFSNYTMNWVRQAPGKGLEWVSFISSSSSETYYADSVKGRFTISRDNSKNTLYLQMNSLRAEDTAVYYCARGYGDMVDLWGQGTLVTVSS VL: DIELTQPPSVSVAPGQTARISCSGDSIPTYYVAWYQQKPGQAPVLVIYSDTDRPSGIPERFSGSNSGNTATLTISGTQAEDEADYYCQSFDNHGYHVFGGGTKLTVLG | binds
